{"sequences": {"note": "The chains behind the UniProt entries cited, without tags or fusion partners. Where a name states a change or a piece, a line headed by the entry shows the natural chain unless it says otherwise.", "UniProt A2RRP1": "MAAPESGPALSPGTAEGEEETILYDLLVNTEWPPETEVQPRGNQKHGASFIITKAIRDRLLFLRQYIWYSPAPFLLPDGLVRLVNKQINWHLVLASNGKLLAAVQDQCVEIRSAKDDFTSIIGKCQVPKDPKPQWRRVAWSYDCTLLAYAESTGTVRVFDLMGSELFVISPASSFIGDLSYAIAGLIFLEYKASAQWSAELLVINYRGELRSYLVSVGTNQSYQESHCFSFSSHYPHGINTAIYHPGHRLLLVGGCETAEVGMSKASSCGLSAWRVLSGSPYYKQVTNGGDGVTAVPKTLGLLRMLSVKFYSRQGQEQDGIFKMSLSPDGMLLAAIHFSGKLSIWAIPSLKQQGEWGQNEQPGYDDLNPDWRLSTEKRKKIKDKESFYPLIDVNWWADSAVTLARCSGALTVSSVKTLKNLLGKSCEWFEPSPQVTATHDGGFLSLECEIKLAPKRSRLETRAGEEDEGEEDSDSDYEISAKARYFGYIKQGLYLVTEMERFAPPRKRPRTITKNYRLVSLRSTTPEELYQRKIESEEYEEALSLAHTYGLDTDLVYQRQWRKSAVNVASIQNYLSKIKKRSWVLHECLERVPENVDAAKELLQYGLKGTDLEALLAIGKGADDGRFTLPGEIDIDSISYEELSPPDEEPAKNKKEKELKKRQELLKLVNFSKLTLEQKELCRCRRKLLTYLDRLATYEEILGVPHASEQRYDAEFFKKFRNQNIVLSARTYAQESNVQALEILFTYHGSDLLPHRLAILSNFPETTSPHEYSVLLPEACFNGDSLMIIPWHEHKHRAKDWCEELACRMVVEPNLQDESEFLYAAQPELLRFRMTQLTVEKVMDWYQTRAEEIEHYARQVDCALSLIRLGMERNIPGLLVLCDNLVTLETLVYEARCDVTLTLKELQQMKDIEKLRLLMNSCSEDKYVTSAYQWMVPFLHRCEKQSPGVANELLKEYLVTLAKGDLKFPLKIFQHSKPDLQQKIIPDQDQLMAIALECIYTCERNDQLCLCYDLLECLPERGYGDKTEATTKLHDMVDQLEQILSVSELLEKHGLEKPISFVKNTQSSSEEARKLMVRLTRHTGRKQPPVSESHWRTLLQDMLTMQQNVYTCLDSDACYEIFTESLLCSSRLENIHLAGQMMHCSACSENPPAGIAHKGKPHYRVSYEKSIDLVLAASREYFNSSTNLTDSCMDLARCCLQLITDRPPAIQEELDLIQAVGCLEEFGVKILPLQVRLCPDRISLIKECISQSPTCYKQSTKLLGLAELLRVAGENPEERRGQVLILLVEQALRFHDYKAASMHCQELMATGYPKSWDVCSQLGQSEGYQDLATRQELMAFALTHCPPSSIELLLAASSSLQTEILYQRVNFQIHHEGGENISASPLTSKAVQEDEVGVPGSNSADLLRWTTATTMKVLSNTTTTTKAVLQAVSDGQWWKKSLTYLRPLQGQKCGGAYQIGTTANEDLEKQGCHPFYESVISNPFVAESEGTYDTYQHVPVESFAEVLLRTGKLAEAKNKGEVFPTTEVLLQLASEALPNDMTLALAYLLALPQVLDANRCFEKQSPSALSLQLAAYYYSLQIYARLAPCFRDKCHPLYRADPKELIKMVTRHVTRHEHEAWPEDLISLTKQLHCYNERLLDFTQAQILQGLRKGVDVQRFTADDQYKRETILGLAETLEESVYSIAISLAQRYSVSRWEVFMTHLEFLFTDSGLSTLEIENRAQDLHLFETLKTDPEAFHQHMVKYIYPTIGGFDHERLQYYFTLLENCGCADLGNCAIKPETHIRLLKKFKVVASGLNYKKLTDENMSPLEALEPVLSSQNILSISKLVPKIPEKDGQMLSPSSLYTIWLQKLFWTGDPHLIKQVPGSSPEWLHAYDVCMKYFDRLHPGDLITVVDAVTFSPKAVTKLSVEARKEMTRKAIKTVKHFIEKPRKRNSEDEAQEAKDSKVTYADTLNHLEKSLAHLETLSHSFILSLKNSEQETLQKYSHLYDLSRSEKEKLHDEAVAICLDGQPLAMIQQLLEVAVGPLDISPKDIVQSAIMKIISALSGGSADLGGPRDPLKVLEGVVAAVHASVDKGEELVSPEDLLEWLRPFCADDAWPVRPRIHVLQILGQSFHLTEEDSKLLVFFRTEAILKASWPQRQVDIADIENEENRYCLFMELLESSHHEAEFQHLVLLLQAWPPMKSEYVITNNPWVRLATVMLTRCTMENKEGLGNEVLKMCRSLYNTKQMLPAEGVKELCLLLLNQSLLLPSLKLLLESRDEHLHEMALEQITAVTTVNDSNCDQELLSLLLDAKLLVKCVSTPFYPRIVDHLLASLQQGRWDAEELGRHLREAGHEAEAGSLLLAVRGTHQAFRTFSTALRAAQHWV", "UniProt A6NFD8": "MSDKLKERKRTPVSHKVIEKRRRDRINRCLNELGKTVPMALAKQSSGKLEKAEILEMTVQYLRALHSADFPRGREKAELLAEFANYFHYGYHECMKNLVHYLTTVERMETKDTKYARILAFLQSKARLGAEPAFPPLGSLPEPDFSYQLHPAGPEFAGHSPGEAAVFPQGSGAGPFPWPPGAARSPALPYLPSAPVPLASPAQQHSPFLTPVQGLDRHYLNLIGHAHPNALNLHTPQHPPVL", "UniProt A0FGR8": "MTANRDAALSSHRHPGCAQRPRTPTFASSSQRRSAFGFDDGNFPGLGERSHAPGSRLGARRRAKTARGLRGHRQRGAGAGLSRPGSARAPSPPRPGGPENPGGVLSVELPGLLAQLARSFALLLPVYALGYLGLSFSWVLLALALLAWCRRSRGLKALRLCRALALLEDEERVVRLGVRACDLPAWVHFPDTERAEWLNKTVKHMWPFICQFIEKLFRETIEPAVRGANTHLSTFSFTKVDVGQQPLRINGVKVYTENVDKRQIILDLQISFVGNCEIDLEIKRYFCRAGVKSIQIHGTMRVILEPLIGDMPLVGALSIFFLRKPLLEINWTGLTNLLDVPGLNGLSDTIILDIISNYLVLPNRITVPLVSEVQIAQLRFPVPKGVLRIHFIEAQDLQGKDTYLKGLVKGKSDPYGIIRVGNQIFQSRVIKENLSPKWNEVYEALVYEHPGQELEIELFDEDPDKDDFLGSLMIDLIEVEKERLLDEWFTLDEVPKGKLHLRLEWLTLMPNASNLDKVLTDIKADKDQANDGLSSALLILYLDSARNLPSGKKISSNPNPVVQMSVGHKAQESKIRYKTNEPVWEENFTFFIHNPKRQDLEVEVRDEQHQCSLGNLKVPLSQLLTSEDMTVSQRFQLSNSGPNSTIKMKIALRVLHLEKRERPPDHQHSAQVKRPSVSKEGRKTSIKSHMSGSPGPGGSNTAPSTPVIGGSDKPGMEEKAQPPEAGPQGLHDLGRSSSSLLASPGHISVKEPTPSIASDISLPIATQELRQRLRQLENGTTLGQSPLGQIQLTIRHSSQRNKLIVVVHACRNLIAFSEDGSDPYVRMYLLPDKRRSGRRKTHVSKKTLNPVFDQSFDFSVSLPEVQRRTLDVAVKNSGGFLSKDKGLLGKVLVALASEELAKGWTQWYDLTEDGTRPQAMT", "UniProt A6NDY0": "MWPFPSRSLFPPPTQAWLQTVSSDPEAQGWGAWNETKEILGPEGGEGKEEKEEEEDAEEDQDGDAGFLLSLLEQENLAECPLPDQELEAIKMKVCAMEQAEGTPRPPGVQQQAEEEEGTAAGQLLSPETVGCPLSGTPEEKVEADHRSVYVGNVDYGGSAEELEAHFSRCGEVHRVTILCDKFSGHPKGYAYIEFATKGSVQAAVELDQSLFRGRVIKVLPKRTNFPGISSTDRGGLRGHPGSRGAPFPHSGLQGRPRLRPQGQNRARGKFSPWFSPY", "UniProt A6NGE4": "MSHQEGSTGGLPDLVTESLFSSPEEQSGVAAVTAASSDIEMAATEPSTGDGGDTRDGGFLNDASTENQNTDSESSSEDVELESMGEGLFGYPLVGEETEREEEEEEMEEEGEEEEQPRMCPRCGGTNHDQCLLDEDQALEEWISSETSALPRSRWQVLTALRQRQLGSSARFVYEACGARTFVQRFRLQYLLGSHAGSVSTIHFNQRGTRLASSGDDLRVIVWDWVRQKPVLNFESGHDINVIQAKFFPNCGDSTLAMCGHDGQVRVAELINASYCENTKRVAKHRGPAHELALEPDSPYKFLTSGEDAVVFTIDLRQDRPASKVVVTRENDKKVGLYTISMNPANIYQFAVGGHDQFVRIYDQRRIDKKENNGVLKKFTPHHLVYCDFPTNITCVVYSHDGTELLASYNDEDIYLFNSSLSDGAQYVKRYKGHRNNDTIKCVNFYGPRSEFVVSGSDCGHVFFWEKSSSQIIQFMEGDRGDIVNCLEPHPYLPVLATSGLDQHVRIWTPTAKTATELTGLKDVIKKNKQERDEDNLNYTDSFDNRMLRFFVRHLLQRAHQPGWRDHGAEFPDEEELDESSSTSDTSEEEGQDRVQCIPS", "UniProt A0JLT2": "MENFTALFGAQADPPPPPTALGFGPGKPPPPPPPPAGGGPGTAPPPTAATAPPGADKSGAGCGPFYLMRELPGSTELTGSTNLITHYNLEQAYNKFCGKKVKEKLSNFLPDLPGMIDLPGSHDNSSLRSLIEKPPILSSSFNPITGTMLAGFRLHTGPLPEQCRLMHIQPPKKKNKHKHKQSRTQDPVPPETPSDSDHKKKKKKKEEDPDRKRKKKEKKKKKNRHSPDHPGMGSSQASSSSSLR", "UniProt A6NGK3": "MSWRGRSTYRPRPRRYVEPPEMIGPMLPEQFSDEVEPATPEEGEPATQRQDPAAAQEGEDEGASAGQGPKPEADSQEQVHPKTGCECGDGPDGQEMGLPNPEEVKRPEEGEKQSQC", "UniProt A6NMK7": "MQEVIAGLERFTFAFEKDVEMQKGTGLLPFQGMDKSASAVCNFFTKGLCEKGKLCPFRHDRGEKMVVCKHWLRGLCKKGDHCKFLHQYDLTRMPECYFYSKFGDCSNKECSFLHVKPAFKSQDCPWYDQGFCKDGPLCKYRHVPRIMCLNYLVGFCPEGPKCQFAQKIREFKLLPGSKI", "UniProt A0MZ66, whole entry": "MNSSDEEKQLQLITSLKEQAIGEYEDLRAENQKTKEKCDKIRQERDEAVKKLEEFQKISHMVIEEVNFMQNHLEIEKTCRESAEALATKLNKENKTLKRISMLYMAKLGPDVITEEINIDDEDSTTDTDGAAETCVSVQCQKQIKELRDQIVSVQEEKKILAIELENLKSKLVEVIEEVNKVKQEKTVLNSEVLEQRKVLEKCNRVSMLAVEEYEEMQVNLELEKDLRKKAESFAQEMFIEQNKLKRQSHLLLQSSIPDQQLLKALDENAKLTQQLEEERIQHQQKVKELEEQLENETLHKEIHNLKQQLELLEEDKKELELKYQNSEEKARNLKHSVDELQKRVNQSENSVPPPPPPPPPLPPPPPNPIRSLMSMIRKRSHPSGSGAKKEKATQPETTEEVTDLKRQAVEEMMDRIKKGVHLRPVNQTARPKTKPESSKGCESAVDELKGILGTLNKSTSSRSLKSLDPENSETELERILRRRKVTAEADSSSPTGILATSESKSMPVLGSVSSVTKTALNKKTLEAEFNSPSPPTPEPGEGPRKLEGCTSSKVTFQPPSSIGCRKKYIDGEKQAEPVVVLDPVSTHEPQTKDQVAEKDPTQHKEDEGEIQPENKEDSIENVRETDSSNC", "UniProt A6NC57": "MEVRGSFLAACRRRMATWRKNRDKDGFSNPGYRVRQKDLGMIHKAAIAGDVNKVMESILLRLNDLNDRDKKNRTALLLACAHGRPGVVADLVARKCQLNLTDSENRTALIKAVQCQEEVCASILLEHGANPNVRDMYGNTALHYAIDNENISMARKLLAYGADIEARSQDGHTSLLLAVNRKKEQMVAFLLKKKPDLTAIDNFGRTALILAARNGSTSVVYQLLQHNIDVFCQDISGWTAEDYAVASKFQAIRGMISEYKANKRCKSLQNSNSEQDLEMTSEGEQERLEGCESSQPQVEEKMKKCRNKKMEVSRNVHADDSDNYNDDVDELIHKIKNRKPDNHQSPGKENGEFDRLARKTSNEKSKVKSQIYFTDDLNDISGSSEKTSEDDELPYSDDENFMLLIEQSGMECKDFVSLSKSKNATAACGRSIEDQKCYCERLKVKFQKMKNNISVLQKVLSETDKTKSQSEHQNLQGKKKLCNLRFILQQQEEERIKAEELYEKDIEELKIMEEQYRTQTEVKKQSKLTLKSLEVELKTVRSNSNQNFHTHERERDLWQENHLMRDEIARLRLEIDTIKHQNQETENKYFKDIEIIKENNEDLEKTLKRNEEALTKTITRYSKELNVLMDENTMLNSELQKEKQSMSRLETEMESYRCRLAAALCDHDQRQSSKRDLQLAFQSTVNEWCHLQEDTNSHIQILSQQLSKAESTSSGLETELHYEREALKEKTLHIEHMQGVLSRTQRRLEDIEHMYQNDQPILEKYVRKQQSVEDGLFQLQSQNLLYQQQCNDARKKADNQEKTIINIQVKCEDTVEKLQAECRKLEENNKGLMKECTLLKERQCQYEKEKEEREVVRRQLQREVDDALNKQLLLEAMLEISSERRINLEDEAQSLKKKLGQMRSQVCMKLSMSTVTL"}, "source": "the supplement of paper PMC12819154", "about": "“High-throughput peptide-centric local stability assay extends protein–ligand identification to membrane proteins, tissues and bacteria” (Nature Structural & Molecular Biology, 2025)", "note": "The list shows a part of the results. Most entries show no effect beyond the scatter of the controls."}
{"compound": "Cc1nc(Nc2ncc(C(=O)Nc3c(C)cccc3Cl)s2)cc(N2CCN(CCO)CC2)n1 [dasatinib]", "assay": "log2 fold change of tryptic peptide abundance, ligand vs vehicle (limited proteolysis) (log2 ratio); higher = more trypsin-susceptible (destabilized)", "settings": "ligand concentration: 5 uM; sample: K562 cleared lysate"}
{"target": "A0A3B3IS91 (peptide sequence: AAAAQPIGHPDALER, peptide start residue: 86), A0A3B3IS91", "log2 fold change": -0.011}
{"target": "CCDC85C (peptide sequence: EMCNVVWR, peptide start residue: 387) (UniProt A6NKD9)", "log2 fold change": 0.21}
{"target": "A0A8I5KQE6 (peptide sequence: LLVVTDPR, peptide start residue: 121), A0A8I5KQE6", "log2 fold change": -0.157}
{"target": "A0AVK6 (peptide sequence: DSTDATTEK, peptide start residue: 557)", "log2 fold change": -0.404}
{"target": "UniProt A2RRP1 (peptide sequence: QVDCALSLIR, peptide start residue: 859)", "log2 fold change": 0.539}
{"target": "UHRF1BP1L (peptide sequence: SVTVNHMSDNR, peptide start residue: 922) (UniProt A0JNW5)", "log2 fold change": 0.44}
{"target": "PALM3 (peptide sequence: TGGGEETWEAEKR, peptide start residue: 384) (UniProt A6NDB9)", "log2 fold change": -0.695}
{"target": "A0A2Z4LIS9 (peptide sequence: STEEGEVAALR, peptide start residue: 26), A0A2Z4LIS9", "log2 fold change": 0.121}
{"target": "TCAF2 (peptide sequence: VVLAAHECLLCAPK, peptide start residue: 268) (UniProt A6NFQ2)", "log2 fold change": -0.752}
{"target": "A0AUZ9 (peptide sequence: KGLLHCTQKK, peptide start residue: 190)", "log2 fold change": 0.263}
{"target": "UniProt A6NFD8 (peptide sequence: KRTPVSHK, peptide start residue: 9)", "log2 fold change": 0.159}
{"target": "VPS37C (peptide sequence: EMALATNR, peptide start residue: 40) (UniProt A5D8V6)", "log2 fold change": -0.0711}
{"target": "UniProt A0FGR8 (peptide sequence: SSSSLLASPGHISVK, peptide start residue: 736)", "log2 fold change": 0.174}
{"target": "UniProt A6NDY0 (peptide sequence: VTILCDKFSGHPK, peptide start residue: 201)", "log2 fold change": 0.0406}
{"target": "A0AVT1 (peptide sequence: NFALLGVGTSK, peptide start residue: 478)", "log2 fold change": 0.139}
{"target": "UniProt A6NF01 (peptide sequence: IVPAHVPTPIQPTFGGATHSAFGLK, peptide start residue: 996)", "log2 fold change": 0.0643}
{"target": "A0A494C030 (peptide sequence: RPADTGPVWVPR, peptide start residue: 165)", "log2 fold change": -0.117}
{"target": "A0A024RBG1 (peptide sequence: TYDREGFK, peptide start residue: 11), A0A024RBG1", "log2 fold change": -0.18}
{"target": "A0A2R8Y4L2 (peptide sequence: IVIQKYHTVNGHNCEVR, peptide start residue: 162), A0A2R8Y4L2", "log2 fold change": 0.397}
{"target": "A0A1W2PQ72 (peptide sequence: ASDEDCQLR, peptide start residue: 158), A0A1W2PQ72", "log2 fold change": -0.37}
{"target": "UniProt A6NGE4 (peptide sequence: FVYEACGAR, peptide start residue: 169)", "log2 fold change": 0.0338}
{"target": "MED19 (peptide sequence: TQDPVPPETPSDSDHK, peptide start residue: 184) (UniProt A0JLT2)", "log2 fold change": 0.549}
{"target": "UniProt A6NGK3 (peptide sequence: PEEGEKQSQC, peptide start residue: 107)", "log2 fold change": -0.0574}
{"target": "A0A590UK10 (peptide sequence: LFPCADDLLETHSHFLAR, peptide start residue: 491)", "log2 fold change": -0.665}
{"target": "UniProt A6NKF1 (peptide sequence: LEVVPGCR, peptide start residue: 78)", "log2 fold change": 0.0541}
{"target": "UniProt A6NMK7 (peptide sequence: MPECYFYSK, peptide start residue: 93)", "log2 fold change": 0.0552}
{"target": "A0A087WWU0 (peptide sequence: WDEEAQDAAGEEEKEQEKEK, peptide start residue: 257)", "log2 fold change": 0.434}
{"target": "UNC119B (peptide sequence: AAAAASAAGPGGLVAGKEEK, peptide start residue: 8) (UniProt A6NIH7)", "log2 fold change": 0.0605}
{"target": "UniProt A6NIE6 (peptide sequence: AAPLLHTR, peptide start residue: 2)", "log2 fold change": 0.0838}
{"target": "UniProt A0MZ66 (peptide sequence: VKELEEQLENETLHK, peptide start residue: 287)", "log2 fold change": 0.132}
{"target": "TBKBP1 (peptide sequence: GAQLREEQLQAECER, peptide start residue: 242) (UniProt A7MCY6)", "log2 fold change": -0.415}
{"target": "ZNF785 (peptide sequence: RLPHSCPDCGR, peptide start residue: 169) (UniProt A8K8V0)", "log2 fold change": -0.328}
{"target": "UniProt A6NC57 (peptide sequence: TITRYSK, peptide start residue: 617)", "log2 fold change": -0.0224}
